Source: article PMC10454580, “Exploring the Binding Affinity of the ARR2 GARP DNA Binding Domain via Comparative Methods”
Construct, isoform or probe ends are uncertain for at least one entry. Results from cells or extracts need not show a direct contact. Tags and fusion partners may be left off the protein sequences shown.

Biological target: T1, GARP2-eGFP (ARR2 GARP DNA-binding domain) (UniProt Q9ZWJ9)
T1 sequence (looked up, limits assumed): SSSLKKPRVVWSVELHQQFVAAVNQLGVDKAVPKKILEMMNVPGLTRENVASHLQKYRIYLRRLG
Test: qDPI-ELISA
Conditions: qDPI-ELISA: TBS/TBS-T (20 mM Tris, 0.18 M NaCl, pH 7.5, 0.1% Tween-20), RT about 25 C; protein in a lysate after overexpression; protein details: eGFP fusion (pET-Dest42-GFP)

## TTAACAATCTCAAAGATTTTGTAGATTGAAATACAAATCTTCTCT (double strand) [wtOligo (ARR5 promoter fragment)]
  binding result: binds
